SMILES strings stand for the structures. Counter-ions that a name gives are not always drawn. Out of some 5,300 compounds screened, about 130 (2.5%) showed an effect of 50% or more. The list shows a part of the results.

The test has as its system M. mycetomatis strain mm55. To be noted: primary screen, metabolic activity vs growth control; 96 h, 2 µM; inhibitor.
As for `CN1C(=O)/C(=C2/C(=O)Nc3ccccc32)c2ccccc21` [ONC0000755, meisoindigo], the “% viability” value was determined as 81.88%.

Consider `Nc1nc2ccc(Cl)cc2c2nc(-c3ccco3)nn12` [ONC0002662, cgs15943], for which the “% viability” value is given as 75.04%.

`Cc1ccc(C[N+](C)(C)C)o1` [ONC0001794, 5methylfurmethiodide]: the “% viability” value stood at 113.2%.

Turning to `CCOC(=O)Nc1cc(-c2ccc(C)c(NS(C)(=O)=O)c2)nn2c(C)nnc12` [ONC0005187, bromosporine], the “% viability” value is reported as 72.52%.

`CS(=O)(=O)Nc1ccc2oc3c(OC(F)F)ccc(C(=O)Nc4c(Cl)cncc4Cl)c3c2c1` [ONC0000891, oglemilast]: the “% viability” value amounted to 62.29%.

As to `Cc1cc2c(F)c(Oc3ncnn4cc(OC[C@@H](C)OC(=O)[C@H](C)N)c(C)c34)ccc2[nH]1` [ONC0004738, brivanib alaninate bms582664], the “% viability” value is 99.27%.

As for `CC(NCCC(c1ccccc1)c1ccccc1)c1ccccc1` (stereo not drawn) [ONC0001878, fendiline], the “% viability” value is on record as 72.6%.

Turning to `CC(=O)OC1[C@@H](N2CC[N+](C)(C)CC2)C[C@H]2[C@@H]3CC[C@H]4C[C@H](OC(C)=O)[C@@H](N5CC[N+](C)(C)CC5)C[C@]4(C)[C@H]3CC[C@]12C` (stereo partly drawn) [ONC0001992, pipecuronium], the “% viability” value is reported as 103.5%.

For the compound `CCc1cccc(CC)c1NC1=NCCN1` [ONC0003558, st91], the “% viability” value amounted to 106.8%.

With `C[C@@H]1CCN(C(=O)CC#N)C[C@@H]1N(C)c1ncnc2[nH]ccc12` [ONC0005042, tofacitinib cp690550 tasocitinib], the “% viability” value is 82.74%.

`CC(=O)C(=Cc1cc(O)c(O)c([N+](=O)[O-])c1)C(C)=O` [ONC0003792, nitecapone]: the “% viability” value stood at 63.44%.

As for `C#CC[C@H](c1nc2cc(Cl)ccc2c(=O)n1Nc1ccccc1)N(CCCN)C(=O)c1cccc(Cl)c1F` [ONC0004318, arq 621], the “% viability” value came out at 92.5%.

`Cc1c(N(C)CS(=O)(=O)O)c(=O)n(-c2ccccc2)n1C` [ONC0002840, dipyrone]: the “% viability” value came to 91.28%.

In the case of `O=C(/C=C/c1ccc(O)c(O)c1)OCCc1ccccc1` [ONC0003026, caffeicacidphenethylester], the “% viability” value stood at 130%.

For `C=CC(=O)Nc1cccc(Oc2nc(Nc3ccc(N4CCN(C)CC4)cc3OC)ncc2Cl)c1` [ONC0004856, wz4002], the “% viability” value amounted to 102%.

Turning to `NCC(O)CC(=O)O` (stereo not drawn) [ONC0002878, threonine dl], the “% viability” value turned out to be 95.1%.

In the case of `CC(=O)OCC(CCn1cnc2cnc(N)nc21)COC(C)=O` [ONC0003937, famciclovir], the “% viability” value is listed as 73.29%.

In the case of `NNc1nncc2ccccc12` [ONC0000426, hydralazine hydrochloride], the “% viability” value stood at 61.24%.

Consider `CCCCC(F)(F)C(=O)CC[C@H]1[C@H](O)CC(=O)[C@@H]1CCCCCCC(=O)O` [ONC0004918, lubiprostone], for which the “% viability” value amounted to 115.4%.

Turning to `O=c1c2c[nH]c3ccccc3c-2nn1-c1ccc(Cl)cc1` [ONC0002892], the “% viability” value stood at 107.8%.

Take `O=C(O)C(O)c1ccccc1` (stereo not drawn) [ONC0003755, mandelicacid]: the “% viability” value came out at 132.5%.

For `C[C@H](CCC(=O)O)[C@H]1CC[C@H]2[C@@H]3[C@H](O)C[C@@H]4C[C@H](O)CC[C@]4(C)[C@H]3CC[C@]12C` [ONC0004922, chenodeoxycholic acid], the “% viability” value stood at 117.1%.

`C[N+](C)(C)CC[N+]1(C)Cc2c(Cl)c(Cl)c(Cl)c(Cl)c2C1` [ONC0002618, chlorisondaminediiodide]: the “% viability” value was 64.5%.

Regarding `CN1CCN(c2c(F)cc3c(=O)c(C(=O)O)cn(CCF)c3c2F)CC1` [ONC0004503, fleroxacin quinodis], the “% viability” value came out at 59.51%.

With `CC[C@H](C)C(=O)O[C@H]1CCC=C2C=C[C@H](C)[C@H](CC[C@@H]3C[C@@H](O)CC(=O)O3)[C@H]21` [ONC0005466, mevastatin], the “% viability” value came to 127.1%.

In the case of `Cc1ccc2c(c1)C(=O)C1(O)CCN(c3ccccc3)C1=N2` (stereo not drawn) [ONC0001527, blebbistatin], the “% viability” value is 80.1%.

In the case of `NCCNS(=O)(=O)c1ccc(Cl)c2ccncc12` [ONC0003525, cki7], the “% viability” value was 94.56%.

As for `CC/C(=C(\c1ccc(OCCN(C)C)cc1)c1cccc(O)c1)c1ccccc1` [ONC0002789], the “% viability” value turned out to be 112.1%.

In the case of `O=C(NCCN1CCC2(CC1)C(=O)NCN2c1cccc(F)c1)c1ccc2ccccc2c1` [ONC0001715, vu0364739], the “% viability” value is recorded as 108.4%.

Regarding `COc1ccc(CCN(C)CCCC(C#N)(c2cc(OC)c(OC)c(OC)c2)C(C)C)cc1OC` (stereo not drawn) [ONC0001960, ü¾Œ–ˆ¼methoxyverapamil hydrochloride], the “% viability” value is recorded as 121.1%.

Consider `Nc1cc(C(Cl)=C(Cl)Cl)c(S(N)(=O)=O)cc1S(N)(=O)=O` [ONC0005084, clorsulon], for which the “% viability” value was determined as 94.31%.

On to `CC1=NN(c2ccc(C)c(C)c2)C(=O)/C1=N/Nc1cccc(-c2cccc(C(=O)O)c2)c1O` [ONC0004936, eltrombopag olamine], for which the “% viability” value is listed as 85.22%.

`COc1c2occc2c(OC)c2c(=O)cc(C)oc12` [ONC0003336, khellin]: the “% viability” value is 80.08%.

`N[C@@H]1c2cccnc2[C@H](OC(=O)N2CCC(n3c(=O)[nH]c4ncccc43)CC2)CC[C@H]1c1cccc(F)c1F` [ONC0000746, rimegepant]: the “% viability” value is listed as 60.53%.

In the case of `CS(=O)(=O)N1CCc2c(-c3cnc(N)nc3)nc(N3CCOCC3)nc21` [ONC0004974], the “% viability” value amounted to 80.5%.

For the compound `Cn1ccc2cc(NC(=O)Nc3cccnc3)ccc21` [ONC0001773, sb200646], the “% viability” value amounted to 112.2%.

On to `O=c1oc2ccccc2c(O)c1Cc1c(O)c2ccccc2oc1=O` [ONC0000533, dicumarol], for which the “% viability” value amounted to 83.84%.

Take `CN1C(CSCC(F)(F)F)Nc2cc(Cl)c(S(N)(=O)=O)cc2S1(=O)=O` (stereo not drawn) [ONC0001953, polythiazide]: the “% viability” value turned out to be 124.5%.

With `CC(=O)[C@]1(O)Cc2c(O)c3c(c(O)c2[C@@H](O[C@H]2C[C@H](N)[C@H](O)[C@H](C)O2)C1)C(=O)c1ccccc1C3=O` [ONC0004533, idarubicin hcl], the “% viability” value is 43.23%.

Regarding `CSc1ccc([C@H]2CN3CCC[C@H]3c3ccccc32)cc1` [ONC0000925, mcn5652], the “% viability” value was 74.54%.

As to `Cn1c(NC[C@@H](N)Cc2ccccc2)nc(-c2ccncc2)c(-c2ccc3ccccc3c2)c1=O` [ONC0000241, amg548], the “% viability” value stood at 91.5%.

As to `c1ccc(CNc2nc(NCc3ccccc3)c3ccccc3n2)cc1` [ONC0005130, dbeq], the “% viability” value was 90.83%.

Turning to `CC(/C=C1\SC(=S)N(CC(=O)O)C1=O)=C\c1ccccc1` [ONC0002055, epalrestat], the “% viability” value is recorded as 66.81%.

In the case of `CCC(=O)OCN1C(=O)C=CC1=O` [ONC0001528, mira1], the “% viability” value stood at 90.28%.

Consider `CCCOc1ccn2c(C(C)=O)cc(-c3ccccc3S(C)(=O)=O)c2c1` [ONC0005288, gsk2801], for which the “% viability” value came to 106.2%.

As to `CCCN(CCC)C1CCc2cccc(O)c2C1` (stereo not drawn) [ONC0002624, 8hydroxydpat], the “% viability” value amounted to 70.5%.

As to `N[C@@H]1[C@H]2CN(c3nc4c(cc3F)c(=O)c(C(=O)O)cn4-c3ccc(F)cc3F)C[C@@H]12` [ONC0003479, trovafloxacin mesylate], the “% viability” value is 65.94%.

Consider `C[C@H](Nc1cc(NS(=O)(=O)N2CCC2)nc(SCc2cccc(F)c2F)n1)[C@@H](O)CO` [ONC0000894, srt3190], for which the “% viability” value turned out to be 61.67%.

Turning to `COC(=O)CCSCc1ccc(-c2onc(C)c2NC(=O)OC(C)c2ccccc2Cl)cc1` (stereo not drawn) [ONC0004532, ki16198], the “% viability” value is listed as 70.88%.

With `CN1CCN(CCCN2c3ccccc3Sc3ccc(Cl)cc32)CC1` [ONC0000480, prochlorperazine edisylate], the “% viability” value is given as 81.16%.

Consider `CCN(c1ccccc1)c1cc(NC)[n+](C)c(C)n1` [ONC0002628, zd7288], for which the “% viability” value is 84.49%.

For the compound `CCCCCCCCCCCCCCCCCCO` [ONC0003680, octadecan1ol], the “% viability” value was determined as 83.48%.

Turning to `COc1ccc(-n2c(SCc3nc(-c4ccc(C)cc4)no3)nnc2-c2ccncc2)cc1` [ONC0002351, jw74], the “% viability” value is 61.82%.

In the case of `NC1=NCCN1CC(=O)O` [ONC0005544, cyclocreatine], the “% viability” value is listed as 121.1%.

Turning to `CC1(C)O[C@@H]2C[C@H]3[C@@H]4CCC5=CC(=O)C=C[C@]5(C)[C@@]4(F)[C@@H](O)C[C@]3(C)[C@]2(C(=O)CO)O1` [ONC0000530, triamcinolone acetonide], the “% viability” value was found to be 72.73%.

Take `CC1(C)[C@H]2CC[C@@]1(C)[C@H](O)[C@@H]2O` [ONC0003634, exoexo23camphanediol]: the “% viability” value was found to be 67.52%.

As to `N=C(N)SCc1ccc(B(O)O)cc1` [ONC0001888, bc11], the “% viability” value worked out at 64.35%.

As for `O=C(O)CCCc1ccccc1` [ONC0003306, sodium phenylbutyrate], the “% viability” value was 55.47%.

Consider `CN(C)[C@@H]1C(=O)C(C(N)=O)C(=O)[C@@]2(O)C(=O)C3C(=O)c4c(O)cccc4[C@@](C)(O)[C@H]3C[C@@H]12` (stereo partly drawn) [ONC0000563, tetracycline hydrochloride], for which the “% viability” value was 113.1%.

With `CCOC(=O)C12CC1/C(=N\O)c1ccccc1O2` (stereo not drawn) [ONC0001852, cpccoet], the “% viability” value came out at 85.9%.

Turning to `O=C(O)COC(=O)Cc1ccccc1Nc1c(Cl)cccc1Cl` [ONC0000439, aceclofenac], the “% viability” value was determined as 78.86%.

In the case of `CC(C)Oc1ccc(C(=O)N[C@H](CNC(=O)CN(C)C)Cc2ccc(-c3cn4cccc([C@H](C)O)c4n3)cc2)cc1Cl` [ONC0005504, gsk923295], the “% viability” value was 90.87%.

`CCOC(=O)C1=C(C)NC(c2ccccc2)=C(C(=O)OCc2ccc([N+](=O)[O-])cc2)C1C#Cc1ccccc1` (stereo not drawn) [ONC0001718, mrs1334]: the “% viability” value worked out at 82.41%.

Values taken from PMC12670160, “A drug-repurposing screen of FDA- and EMA-approved drugs identifies two NF-κB inhibitors active against eumycetoma” (Journal of Antimicrobial Chemotherapy, 2025).
